The list shows a part of the results.
Columns and labels:
Assay in all cases: log2 fold change, soluble protein after heating vs DMSO (PISA); higher = thermal stabilisation; K562 lysate, 10 uM; active = over 0.2 and 3.5 SD of the protein, either way, in both replicates (recomputed)
vemurafenib = compound: CCCS(=O)(=O)Nc1ccc(F)c(C(=O)c2c[nH]c3ncc(-c4ccc(Cl)cc4)cc23)c1F [vemurafenib]
How it was run: (§1)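 Quantification was by TMTpro 16plex LC-MS/MS with equalised channel sums, applied to the supernatant after 21,000xg for 90 min. Samples were crude K562 extract at 1 mg/mL protein in PBS pH 7.4 with 1 mM MgCl2, treated with 10 μM compound for 30 min, heated for 3 min across 48°C-58°C, pooled and brought to 0.5% NP-40 at 4°C. Values are log-two fold changes in thermal stability relative to solvent controls, from duplicates.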

Amino acid sequences for entries named in this document (tags omitted). A change or cut given only in a name is not applied to a line headed by its entry.
UniProt Q9NX08, whole entry, looked up: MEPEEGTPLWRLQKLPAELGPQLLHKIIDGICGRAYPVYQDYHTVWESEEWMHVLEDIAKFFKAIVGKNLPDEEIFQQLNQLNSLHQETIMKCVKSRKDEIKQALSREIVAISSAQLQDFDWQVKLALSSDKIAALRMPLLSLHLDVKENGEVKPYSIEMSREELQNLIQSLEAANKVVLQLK
UniProt P13073, whole entry, looked up: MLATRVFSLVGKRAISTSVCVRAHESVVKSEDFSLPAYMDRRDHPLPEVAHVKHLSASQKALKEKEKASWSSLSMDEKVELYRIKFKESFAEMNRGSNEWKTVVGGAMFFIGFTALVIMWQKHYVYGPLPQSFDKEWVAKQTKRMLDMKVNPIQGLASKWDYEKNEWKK
UniProt Q8IWV2: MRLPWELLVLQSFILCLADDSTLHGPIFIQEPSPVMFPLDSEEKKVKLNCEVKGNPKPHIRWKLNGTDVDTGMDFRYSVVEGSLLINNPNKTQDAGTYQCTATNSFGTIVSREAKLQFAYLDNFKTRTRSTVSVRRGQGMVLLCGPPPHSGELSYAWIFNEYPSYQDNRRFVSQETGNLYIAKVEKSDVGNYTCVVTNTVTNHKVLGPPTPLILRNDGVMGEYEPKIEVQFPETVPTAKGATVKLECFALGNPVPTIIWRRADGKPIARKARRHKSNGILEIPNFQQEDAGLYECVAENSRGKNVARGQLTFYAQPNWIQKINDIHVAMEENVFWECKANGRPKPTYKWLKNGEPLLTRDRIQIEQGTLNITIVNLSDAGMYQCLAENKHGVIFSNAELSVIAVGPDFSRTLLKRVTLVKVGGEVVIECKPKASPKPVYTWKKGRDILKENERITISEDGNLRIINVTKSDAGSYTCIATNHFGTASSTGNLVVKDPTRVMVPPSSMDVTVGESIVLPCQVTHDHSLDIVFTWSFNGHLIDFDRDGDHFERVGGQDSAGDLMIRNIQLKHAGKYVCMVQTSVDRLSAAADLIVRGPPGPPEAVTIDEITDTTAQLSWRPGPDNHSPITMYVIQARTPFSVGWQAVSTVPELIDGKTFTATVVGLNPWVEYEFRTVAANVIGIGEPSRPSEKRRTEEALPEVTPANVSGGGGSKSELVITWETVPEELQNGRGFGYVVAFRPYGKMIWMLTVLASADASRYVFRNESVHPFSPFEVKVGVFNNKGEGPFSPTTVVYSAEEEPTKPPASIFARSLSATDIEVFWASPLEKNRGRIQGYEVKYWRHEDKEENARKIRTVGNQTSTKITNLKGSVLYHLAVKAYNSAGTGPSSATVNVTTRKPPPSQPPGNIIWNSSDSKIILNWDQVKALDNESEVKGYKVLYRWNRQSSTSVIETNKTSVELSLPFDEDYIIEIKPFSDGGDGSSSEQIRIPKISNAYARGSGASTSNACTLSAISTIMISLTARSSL
UniProt P10606, whole entry, looked up: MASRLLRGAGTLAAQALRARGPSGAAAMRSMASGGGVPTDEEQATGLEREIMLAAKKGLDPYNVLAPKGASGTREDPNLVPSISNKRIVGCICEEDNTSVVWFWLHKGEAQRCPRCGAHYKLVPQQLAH
UniProt Q8N684: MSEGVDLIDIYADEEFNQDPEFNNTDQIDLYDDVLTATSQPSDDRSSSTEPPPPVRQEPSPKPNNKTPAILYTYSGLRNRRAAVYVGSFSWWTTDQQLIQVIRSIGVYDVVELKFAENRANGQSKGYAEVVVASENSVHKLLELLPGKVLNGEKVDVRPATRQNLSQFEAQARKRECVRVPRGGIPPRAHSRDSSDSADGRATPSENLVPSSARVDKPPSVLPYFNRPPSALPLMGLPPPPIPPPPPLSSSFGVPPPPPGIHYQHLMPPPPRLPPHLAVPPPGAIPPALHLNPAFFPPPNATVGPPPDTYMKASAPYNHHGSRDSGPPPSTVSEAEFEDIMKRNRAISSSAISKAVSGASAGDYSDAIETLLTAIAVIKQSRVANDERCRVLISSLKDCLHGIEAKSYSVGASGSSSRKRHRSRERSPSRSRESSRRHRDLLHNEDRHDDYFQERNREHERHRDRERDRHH
UniProt Q9UBW8: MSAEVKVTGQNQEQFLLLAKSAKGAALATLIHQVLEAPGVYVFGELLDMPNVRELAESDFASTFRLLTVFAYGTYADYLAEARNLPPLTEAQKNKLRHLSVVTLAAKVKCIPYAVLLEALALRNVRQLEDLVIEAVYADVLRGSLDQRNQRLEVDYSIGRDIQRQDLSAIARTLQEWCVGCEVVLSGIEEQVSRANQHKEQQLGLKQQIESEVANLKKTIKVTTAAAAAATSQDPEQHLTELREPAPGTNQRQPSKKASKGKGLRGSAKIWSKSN
UniProt Q92600, whole entry, looked up: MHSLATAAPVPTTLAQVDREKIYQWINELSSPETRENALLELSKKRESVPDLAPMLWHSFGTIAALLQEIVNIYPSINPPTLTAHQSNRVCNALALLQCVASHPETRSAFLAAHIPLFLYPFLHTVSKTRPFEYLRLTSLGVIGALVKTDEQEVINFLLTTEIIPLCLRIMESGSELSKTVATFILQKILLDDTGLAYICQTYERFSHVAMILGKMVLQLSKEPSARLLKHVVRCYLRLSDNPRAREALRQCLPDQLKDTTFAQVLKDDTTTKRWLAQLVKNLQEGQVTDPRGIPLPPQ
UniProt Q9Y2R0: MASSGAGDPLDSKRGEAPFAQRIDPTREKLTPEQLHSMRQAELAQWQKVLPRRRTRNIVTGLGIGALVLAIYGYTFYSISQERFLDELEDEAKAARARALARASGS
UniProt P09543: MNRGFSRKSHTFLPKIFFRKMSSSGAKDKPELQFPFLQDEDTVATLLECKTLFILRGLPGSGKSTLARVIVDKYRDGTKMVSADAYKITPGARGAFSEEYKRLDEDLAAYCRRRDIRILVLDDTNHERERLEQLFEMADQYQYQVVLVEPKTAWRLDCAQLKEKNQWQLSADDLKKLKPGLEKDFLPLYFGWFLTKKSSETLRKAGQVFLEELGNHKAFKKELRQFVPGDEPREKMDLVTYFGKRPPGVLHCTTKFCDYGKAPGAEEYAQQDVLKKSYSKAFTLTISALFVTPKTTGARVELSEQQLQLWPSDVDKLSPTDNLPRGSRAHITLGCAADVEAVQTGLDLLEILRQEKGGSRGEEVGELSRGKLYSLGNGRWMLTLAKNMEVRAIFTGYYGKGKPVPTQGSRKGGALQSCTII
UniProt O14579: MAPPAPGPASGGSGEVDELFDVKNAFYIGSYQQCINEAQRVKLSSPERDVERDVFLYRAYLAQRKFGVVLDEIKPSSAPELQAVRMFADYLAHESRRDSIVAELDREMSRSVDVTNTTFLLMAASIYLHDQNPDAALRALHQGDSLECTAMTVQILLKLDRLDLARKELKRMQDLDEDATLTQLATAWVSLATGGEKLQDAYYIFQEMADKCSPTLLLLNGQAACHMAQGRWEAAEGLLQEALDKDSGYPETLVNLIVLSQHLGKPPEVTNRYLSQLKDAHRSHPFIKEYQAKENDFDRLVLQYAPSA
UniProt Q92905, whole entry, looked up: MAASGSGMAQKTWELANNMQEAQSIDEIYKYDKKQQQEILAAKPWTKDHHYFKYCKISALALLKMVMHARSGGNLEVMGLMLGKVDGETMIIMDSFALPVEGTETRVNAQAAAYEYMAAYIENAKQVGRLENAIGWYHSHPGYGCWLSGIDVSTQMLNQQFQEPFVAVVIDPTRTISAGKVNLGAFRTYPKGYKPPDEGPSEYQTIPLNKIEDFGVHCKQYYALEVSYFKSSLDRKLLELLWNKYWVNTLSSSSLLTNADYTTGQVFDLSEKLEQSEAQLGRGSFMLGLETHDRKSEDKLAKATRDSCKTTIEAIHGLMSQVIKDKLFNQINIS
UniProt Q9UP83: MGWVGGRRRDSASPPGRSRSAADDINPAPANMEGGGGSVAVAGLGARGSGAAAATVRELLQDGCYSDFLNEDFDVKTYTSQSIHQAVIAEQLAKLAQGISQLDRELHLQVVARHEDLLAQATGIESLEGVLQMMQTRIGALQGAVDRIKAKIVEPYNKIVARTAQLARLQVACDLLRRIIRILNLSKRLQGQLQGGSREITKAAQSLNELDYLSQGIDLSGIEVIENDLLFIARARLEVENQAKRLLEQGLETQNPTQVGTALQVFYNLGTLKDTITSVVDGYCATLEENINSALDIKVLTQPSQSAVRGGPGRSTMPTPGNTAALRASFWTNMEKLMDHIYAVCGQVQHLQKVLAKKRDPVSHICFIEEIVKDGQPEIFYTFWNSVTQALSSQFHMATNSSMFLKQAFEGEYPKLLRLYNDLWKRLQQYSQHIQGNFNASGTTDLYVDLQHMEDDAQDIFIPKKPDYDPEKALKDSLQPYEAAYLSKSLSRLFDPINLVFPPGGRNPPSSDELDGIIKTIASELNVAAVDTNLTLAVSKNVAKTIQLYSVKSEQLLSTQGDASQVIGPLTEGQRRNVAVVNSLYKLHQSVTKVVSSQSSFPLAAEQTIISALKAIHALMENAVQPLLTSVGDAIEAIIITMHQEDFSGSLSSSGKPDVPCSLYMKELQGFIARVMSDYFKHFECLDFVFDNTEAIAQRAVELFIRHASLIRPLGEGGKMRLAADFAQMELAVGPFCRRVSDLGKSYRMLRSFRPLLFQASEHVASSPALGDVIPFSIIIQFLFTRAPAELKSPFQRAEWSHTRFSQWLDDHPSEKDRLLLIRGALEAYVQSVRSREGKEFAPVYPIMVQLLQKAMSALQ
UniProt Q8N668, whole entry, looked up: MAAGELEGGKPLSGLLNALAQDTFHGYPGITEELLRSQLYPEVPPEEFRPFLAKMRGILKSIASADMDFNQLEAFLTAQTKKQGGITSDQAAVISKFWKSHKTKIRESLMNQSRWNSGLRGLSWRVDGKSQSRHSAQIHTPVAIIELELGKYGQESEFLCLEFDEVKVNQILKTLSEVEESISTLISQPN
UniProt Q9NYJ1, whole entry, looked up: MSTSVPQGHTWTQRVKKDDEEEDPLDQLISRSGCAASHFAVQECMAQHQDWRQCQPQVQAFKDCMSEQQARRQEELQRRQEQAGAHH
UniProt O14548: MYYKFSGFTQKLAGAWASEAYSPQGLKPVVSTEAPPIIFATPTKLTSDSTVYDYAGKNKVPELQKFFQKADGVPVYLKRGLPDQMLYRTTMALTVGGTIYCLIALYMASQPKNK
UniProt P12074, whole entry, looked up: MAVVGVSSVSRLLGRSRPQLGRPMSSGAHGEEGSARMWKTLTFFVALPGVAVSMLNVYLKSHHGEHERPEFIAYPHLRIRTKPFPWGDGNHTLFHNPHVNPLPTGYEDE
UniProt Q9H9A5, whole entry, looked up: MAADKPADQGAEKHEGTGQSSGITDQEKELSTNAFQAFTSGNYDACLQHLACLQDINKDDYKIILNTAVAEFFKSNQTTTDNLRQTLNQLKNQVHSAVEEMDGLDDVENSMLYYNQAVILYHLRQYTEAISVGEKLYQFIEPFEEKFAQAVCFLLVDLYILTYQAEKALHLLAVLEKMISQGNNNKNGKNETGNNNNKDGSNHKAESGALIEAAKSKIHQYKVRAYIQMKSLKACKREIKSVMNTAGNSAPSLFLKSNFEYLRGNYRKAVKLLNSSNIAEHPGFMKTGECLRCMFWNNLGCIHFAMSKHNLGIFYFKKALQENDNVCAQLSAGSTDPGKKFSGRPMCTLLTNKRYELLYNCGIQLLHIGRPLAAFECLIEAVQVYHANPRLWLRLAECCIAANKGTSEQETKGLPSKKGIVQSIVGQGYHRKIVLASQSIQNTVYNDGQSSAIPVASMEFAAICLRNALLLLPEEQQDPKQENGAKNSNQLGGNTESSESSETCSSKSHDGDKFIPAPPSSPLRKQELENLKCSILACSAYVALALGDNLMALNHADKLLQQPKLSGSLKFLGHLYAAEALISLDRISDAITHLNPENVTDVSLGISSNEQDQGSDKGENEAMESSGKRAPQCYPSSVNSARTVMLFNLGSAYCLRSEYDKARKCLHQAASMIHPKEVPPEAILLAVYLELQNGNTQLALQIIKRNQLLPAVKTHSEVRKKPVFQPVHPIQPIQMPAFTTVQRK
UniProt Q6P4Q7: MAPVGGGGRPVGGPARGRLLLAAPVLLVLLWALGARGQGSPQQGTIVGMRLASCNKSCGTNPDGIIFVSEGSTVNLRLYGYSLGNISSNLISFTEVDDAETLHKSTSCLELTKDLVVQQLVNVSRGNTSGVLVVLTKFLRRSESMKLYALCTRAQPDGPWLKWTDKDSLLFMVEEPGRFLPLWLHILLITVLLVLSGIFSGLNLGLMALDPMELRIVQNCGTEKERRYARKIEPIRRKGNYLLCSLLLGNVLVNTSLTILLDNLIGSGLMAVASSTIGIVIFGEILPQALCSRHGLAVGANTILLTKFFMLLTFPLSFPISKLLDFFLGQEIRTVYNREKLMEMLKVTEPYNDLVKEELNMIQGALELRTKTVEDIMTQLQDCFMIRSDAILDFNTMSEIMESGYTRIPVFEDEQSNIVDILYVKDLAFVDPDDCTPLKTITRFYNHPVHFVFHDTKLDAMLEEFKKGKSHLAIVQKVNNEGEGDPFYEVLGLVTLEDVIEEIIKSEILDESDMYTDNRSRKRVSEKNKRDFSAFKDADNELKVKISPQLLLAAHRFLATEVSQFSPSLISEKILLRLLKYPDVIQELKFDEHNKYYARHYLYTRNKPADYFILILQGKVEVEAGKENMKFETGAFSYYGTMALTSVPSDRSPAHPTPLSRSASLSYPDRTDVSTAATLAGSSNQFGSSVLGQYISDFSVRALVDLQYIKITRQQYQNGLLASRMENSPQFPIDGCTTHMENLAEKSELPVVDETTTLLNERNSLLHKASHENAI

[1] = compound: CCCS(=O)(=O)Nc1ccc(F)c(C(=O)c2c[nH]c3ncc(Cl)cc23)c1F
How it was run: as §1

barasertib = compound: CCN(CCCOc1ccc2c(Nc3cc(CC(=O)Nc4cccc(F)c4)[nH]n3)ncnc2c1)CCOP(=O)(O)O [barasertib]
How it was run: as §1

[2] = compound: CC[C@@H]1C(=O)N(C)c2cnc(Nc3ccc(C(=O)NC4CCN(C)CC4)cc3OC)nc2N1C1CCCC1
How it was run: as §1

volasertib = compound: CC[C@@H]1C(=O)N(C)c2cnc(Nc3ccc(C(=O)N[C@H]4CC[C@H](N5CCN(CC6CC6)CC5)CC4)cc3OC)nc2N1C(C)C [volasertib]
How it was run: as §1

[3] = compound: CCn1c(C(=O)N(C2CC2)C2CC2)cc2c3c(ncn3C)c(Nc3cc(C)n(C)n3)nc21
How it was run: as §1

[4] = compound: CCn1cc(-c2ccnc3[nH]c(-c4cccc(CN(C)C)c4)cc23)c(-c2ccc(NC(=O)N(C)C)cc2)n1
How it was run: as §1

[5] = compound: CN1CCC(CNc2ccc3ncc(-c4cccc(OC(F)(F)F)c4)n3n2)CC1
How it was run: as §1

saracatinib = compound: CN1CCN(CCOc2cc(OC3CCOCC3)c3c(Nc4c(Cl)ccc5c4OCO5)ncnc3c2)CC1 [saracatinib]
How it was run: as §1

sotrastaurin = compound: CN1CCN(c2nc(C3=C(c4c[nH]c5ccccc45)C(=O)NC3=O)c3ccccc3n2)CC1 [sotrastaurin]
How it was run: as §1

Measured: log2 fold change

COMMD8 (UniProt Q9NX08)
inactive: vemurafenib -0.143 | [1] -0.009 | barasertib 0.103 | [2] 0.053 | volasertib 0.086 | [3] 0.036 | [4] -0.065 | [5] -0.002 | saracatinib 0.049 | sotrastaurin -0.074

COX4I1 (UniProt P13073)
inactive: vemurafenib 0.026 | [1] -0.012 | barasertib -0.012 | [2] 0.05 | volasertib 0.041 | [3] -0.012 | [4] -0.054 | [5] 0.044 | saracatinib 0.03 | sotrastaurin -0.002

CNTN4 (UniProt Q8IWV2)
inactive: vemurafenib 0.237 | [1] 0.12 | barasertib 0.03 | [2] 0.295 | volasertib 0.024 | [3] -0.326 | [4] -0.474 | [5] 0.128 | sotrastaurin -0.076

COX5B (UniProt P10606)
inactive: vemurafenib -0.023 | [1] -0.053 | barasertib 0.133 | [2] 0.058 | volasertib 0.091 | [3] -0.023 | [4] 0.025 | [5] -0.096 | saracatinib 0.029 | sotrastaurin -0.032

CPNE1 (UniProt Q99829)
inactive: vemurafenib -0.004 | [1] 0.016 | barasertib -0.028 | [2] 0.013 | volasertib -0.027 | [3] -0.012 | [4] -0.064 | [5] 0.044 | saracatinib -0.004 | sotrastaurin 0.019

CORO7 isoform 3 (UniProt P57737)
inactive: vemurafenib 0.031 | [1] 0.013 | barasertib 0.008 | [2] -0.042 | volasertib -0.01 | [3] 0.016 | [4] 0.044 | [5] -0.175 | saracatinib 0.004 | sotrastaurin 0.008

COPS6 (UniProt Q7L5N1)
inactive: vemurafenib -0.137 | [1] -0.005 | barasertib 0.094 | [2] -0.058 | volasertib -0.015 | [3] 0.1 | [4] 0.014 | [5] 0.018 | saracatinib -0.004 | sotrastaurin -0.014

CPSF7 isoform 3 (UniProt Q8N684)
inactive: vemurafenib -0.022 | [1] 0.006 | barasertib 0.034 | [2] -0.031 | volasertib 0.007 | [3] 0.036 | [4] 0.032 | [5] 0.021 | saracatinib 0.012 | sotrastaurin 0.003

COPS7A (UniProt Q9UBW8)
inactive: vemurafenib -0.002 | [1] -0.002 | barasertib -0.013 | [2] -0.072 | volasertib 0.014 | [3] -0.004 | [4] -0.019 | [5] 0 | saracatinib 0.012 | sotrastaurin -0.011

CPD (UniProt O75976)
inactive: vemurafenib 0.006 | [1] -0.004 | barasertib 0.001 | [2] 0.173 | volasertib 0.012 | [3] -0.084 | [4] -0.12 | [5] 0.048 | saracatinib 0.018 | sotrastaurin -0.003

COPG1 (UniProt Q9Y678)
inactive: vemurafenib 0.007 | [1] 0.005 | barasertib 0.007 | [2] -0.008 | volasertib -0.009 | [3] -0.002 | [4] -0.014 | [5] 0.007 | saracatinib -0.023 | sotrastaurin -0.034

CPS1 isoform 3 (UniProt P31327)
inactive: vemurafenib 0.119 | [1] 0.072 | barasertib -0.01 | [2] 0.073 | volasertib 0.087 | [3] 0.048 | [4] -0.037 | [5] 0.012 | saracatinib 0.061 | sotrastaurin -0.022

CNOT9 (UniProt Q92600)
inactive: vemurafenib -0.003 | [1] -0.004 | barasertib 0.074 | [2] 0.012 | volasertib -0.011 | [3] 0.043 | [4] -0.055 | [5] 0.01 | saracatinib 0.016 | sotrastaurin -0.01

COA3 (UniProt Q9Y2R0)
inactive: vemurafenib -0.084 | [1] -0.023 | barasertib 0.075 | [2] 0.105 | volasertib 0.024 | [3] 0.017 | [4] -0.052 | [5] -0.001 | saracatinib 0.018 | sotrastaurin 0.004

COX5A (UniProt P20674)
inactive: vemurafenib -0.022 | [1] -0.044 | barasertib 0.054 | [2] 0.049 | volasertib 0.048 | [3] 0.046 | [4] 0.198 | [5] -0.182 | saracatinib 0.016 | sotrastaurin -0.003

CNP (UniProt P09543)
inactive: vemurafenib 0.005 | [1] -0.011 | barasertib 0.003 | [2] -0.097 | volasertib -0.022 | [3] 0.019 | [4] -0.023 | [5] -0.028 | saracatinib 0.01 | sotrastaurin -0.008

COPE (UniProt O14579)
inactive: vemurafenib -0.071 | [1] 0.004 | barasertib 0.156 | [2] -0.063 | volasertib -0.017 | [3] -0.019 | [4] -0.23 | [5] 0.113 | saracatinib -0.01 | sotrastaurin 0.052

CNOT11 (UniProt Q9UKZ1)
inactive: vemurafenib 0.004 | [1] 0.022 | barasertib 0.034 | [2] 0.009 | volasertib -0.018 | [3] -0.022 | [4] -0.031 | [5] 0.005 | saracatinib 0.006 | sotrastaurin 0.059

COPS5 (UniProt Q92905)
inactive: vemurafenib -0.014 | [1] -0.009 | barasertib 0.004 | [2] 0.034 | volasertib 0.01 | [3] -0.009 | [4] -0.075 | [5] 0.013 | saracatinib -0.001 | sotrastaurin -0.011

COG5 isoform 2 (UniProt Q9UP83)
inactive: vemurafenib 0.001 | [1] 0.06 | barasertib -0.116 | [2] -0.056 | volasertib -0.084 | [3] -0.007 | [4] -0.02 | [5] 0.01 | saracatinib 0.057 | sotrastaurin 0.08

COMMD1 (UniProt Q8N668)
inactive: vemurafenib 0.021 | [1] 0.048 | barasertib -0.01 | [2] -0.014 | volasertib 0.007 | [3] 0.071 | [4] -0.027 | [5] 0.033 | saracatinib 0.063 | sotrastaurin 0.025

COX7A2 (UniProt P14406)
inactive: vemurafenib 0.033 | [1] -0.057 | barasertib 0.148 | [2] 0.032 | volasertib 0.024 | [3] 0.07 | [4] -0.03 | [5] -0.069 | sotrastaurin -0.002

CNOT6L (UniProt Q96LI5)
active: [4] -0.422
inactive: vemurafenib 0.035 | [1] -0.007 | barasertib 0.065 | [2] -0.006 | volasertib 0.006 | [3] 0.078 | [5] 0.107 | saracatinib 0.048 | sotrastaurin -0.019

CPNE7 (UniProt Q9UBL6)
inactive: vemurafenib 0.035 | [1] 0 | barasertib 0.017 | [2] -0.018 | volasertib -0.016 | [3] 0.071 | [4] -0.201 | [5] 0.134 | saracatinib 0.045 | sotrastaurin -0.019

COA4 isoform 2 (UniProt Q9NYJ1)
inactive: vemurafenib -0.061 | [1] -0.017 | barasertib 0.175 | [2] 0.1 | volasertib 0.105 | [3] 0 | [4] 0.037 | [5] -0.278 | saracatinib 0.021 | sotrastaurin 0.082

COX7A2L (UniProt O14548)
inactive: vemurafenib -0.056 | [1] 0.028 | barasertib 0.03 | [2] -0.043 | volasertib 0.039 | [3] 0.005 | [4] -0.128 | [5] 0.045 | saracatinib -0.036 | sotrastaurin -0.011

COX6A1 (UniProt P12074)
inactive: vemurafenib 0.024 | [1] -0.018 | barasertib 0.102 | [2] 0.071 | volasertib -0.003 | [3] 0.039 | [4] -0.377 | [5] 0.033 | saracatinib -0.036 | sotrastaurin 0.175

CNOT10 (UniProt Q9H9A5)
inactive: vemurafenib 0.04 | [1] -0.01 | barasertib 0.012 | [2] 0.025 | volasertib 0 | [3] -0.036 | [4] -0.028 | [5] 0.022 | saracatinib 0.02 | sotrastaurin 0.024

CNNM4 (UniProt Q6P4Q7)
inactive: vemurafenib 0.02 | [1] 0.024 | barasertib 0.025 | [2] -0.308 | volasertib -0.025 | [3] 0.064 | [4] 0.12 | [5] 0.129 | saracatinib -0.003 | sotrastaurin -0.023

— the supplement of paper PMC10849652
